Test results: patent publication US20230295331A1
These are yes or no findings as the source states them, for the method shown.

Assays:
Test in all cases: condition: dilution 10^2 (least diluted; no concentration given); ELISA, dilution series of antibody 7A8D5 on control protein
TOX = target: TOX
GPR63 = target: GPR63
ADRB2 = target: ADRB2
ATP6AP1 = target: ATP6AP1
CD45R = target: CD45R
ACAA1 = target: ACAA1
CD274 = target: CD274

Measured: binding

B1: mouse monoclonal anti-human CS1 antibody, clone 7A8D5 (antibody, V domains shown)
VH: VQLQQSGPEVVRPGVSVKISCKGSGYTFTDYAIHWVKQSHAKSLEWIGVINTYNGNTNYNQKFKGKATMTVDKSSSTAYMELARLTSEDSAIYYCTRTGYYYGPSHYFDYWGQGTTLTVSS
VL: DIVLTQSPASLTVSLGQRATMSCRASKSVSTSGYSYVHWYQQKPGQPPKLLIYLASNLESGVPARFSASGSGTDFTLNIHPVEEEDAATYYCQHSRELPWTFGGGTKLEIKR
no binding: TOX | GPR63 | ADRB2 | ATP6AP1 | CD45R | ACAA1 | CD274
